Consider two molecules from publication PMC5378613.

Amino acid sequences for entries named in this document (tags omitted).
UniProt P61604: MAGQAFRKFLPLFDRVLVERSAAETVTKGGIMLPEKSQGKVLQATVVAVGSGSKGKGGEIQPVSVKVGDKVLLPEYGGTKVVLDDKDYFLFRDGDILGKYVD

Read-outs that look alike come from different tables or passages of the source. These are yes or no findings as the source states them, for the method shown. In cells and extracts the contact can be indirect. Here binding means that the protein was enriched with, or labelled near, the bait; the list need not be complete.

The target in assay [1] is T1, ID4 (inhibitor of differentiation 4), endogenous in LNCaP cells (human (endogenous in LNCaP)) (UniProt P47928).
T1 sequence: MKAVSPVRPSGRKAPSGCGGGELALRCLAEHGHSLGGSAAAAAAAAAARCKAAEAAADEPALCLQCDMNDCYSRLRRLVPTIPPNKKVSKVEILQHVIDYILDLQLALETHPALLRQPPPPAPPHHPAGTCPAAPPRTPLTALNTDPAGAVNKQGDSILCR
The assay can be described thus: affinity purification with mass spectrometry; co-immunoprecipitation with an ID4-specific antibody on protein A magnetic beads from L+ns (LNCaP) cells; partners identified by LC-MS/MS on LTQ-Orbitrap.

Assay [2] has as its target T1, ID4 (inhibitor of differentiation 4), endogenous in LNCaP cells (human (endogenous in LNCaP)). Described as above. This is another data set of the same source.

For “Hsp10, endogenous in LNCaP cells (from UniProt P61604 1-102)”, the binding result in assay [1] is on record as “binds”.

B1: FKBP52 (52-kDa FK506-binding protein), endogenous in prostate cancer cells (protein, UniProt Q02790 1-459)
chain: MTAEEMKATESGAQSAPLPMEGVDISPKQDEGVLKVIKREGTGTEMPMIGDRVFVHYTGWLLDGTKFDSSLDRKDKFSFDLGKGEVIKAWDIAIATMKVGEVCHITCKPEYAYGSAGSPPKIPPNATLVFEVELFEFKGEDLTEEEDGGIIRRIQTRGEGYAKPNEGAIVEVALEGYYKDKLFDQRELRFEIGEGENLDLPYGLERAIQRMEKGEHSIVYLKPSYAFGSVGKEKFQIPPNAELKYELHLKSFEKAKESWEMNSEEKLEQSTIVKERGTVYFKEGKYKQALLQYKKIVSWLEYESSFSNEEAQKAQALRLASHLNLAMCHLKLQAFSAAIESCNKALELDSNNEKGLFRRGEAHLAVNDFELARADFQKVLQLYPNNKAAKTQLAVCQQRIRRQLAREKKLYANMFERLAEEENKAKAEASSGDHPTDTEMKEEQKSNTAGSQSQVETEA
For B1, in assay [2], the binding entry is “binds”.
